Laboratory results taken from publication PMC5680261.

By UniProt entry, the sequences of proteins in these tests, tags left out. Residues count along the entry.
UniProt Q9BXM7, residues 78-581: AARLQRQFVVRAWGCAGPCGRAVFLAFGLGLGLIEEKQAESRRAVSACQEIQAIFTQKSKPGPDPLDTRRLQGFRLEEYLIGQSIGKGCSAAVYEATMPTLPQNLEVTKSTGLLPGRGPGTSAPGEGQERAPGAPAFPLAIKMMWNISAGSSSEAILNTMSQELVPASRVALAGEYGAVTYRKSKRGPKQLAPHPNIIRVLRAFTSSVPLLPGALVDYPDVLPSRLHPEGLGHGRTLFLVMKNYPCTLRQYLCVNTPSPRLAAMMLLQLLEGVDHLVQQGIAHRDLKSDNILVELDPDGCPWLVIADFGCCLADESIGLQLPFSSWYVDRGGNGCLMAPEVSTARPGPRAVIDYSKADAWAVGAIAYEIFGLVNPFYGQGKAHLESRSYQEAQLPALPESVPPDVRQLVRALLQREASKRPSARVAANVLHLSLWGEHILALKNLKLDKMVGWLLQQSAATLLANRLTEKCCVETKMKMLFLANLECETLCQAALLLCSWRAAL
UniProt O95202, residues 116-739: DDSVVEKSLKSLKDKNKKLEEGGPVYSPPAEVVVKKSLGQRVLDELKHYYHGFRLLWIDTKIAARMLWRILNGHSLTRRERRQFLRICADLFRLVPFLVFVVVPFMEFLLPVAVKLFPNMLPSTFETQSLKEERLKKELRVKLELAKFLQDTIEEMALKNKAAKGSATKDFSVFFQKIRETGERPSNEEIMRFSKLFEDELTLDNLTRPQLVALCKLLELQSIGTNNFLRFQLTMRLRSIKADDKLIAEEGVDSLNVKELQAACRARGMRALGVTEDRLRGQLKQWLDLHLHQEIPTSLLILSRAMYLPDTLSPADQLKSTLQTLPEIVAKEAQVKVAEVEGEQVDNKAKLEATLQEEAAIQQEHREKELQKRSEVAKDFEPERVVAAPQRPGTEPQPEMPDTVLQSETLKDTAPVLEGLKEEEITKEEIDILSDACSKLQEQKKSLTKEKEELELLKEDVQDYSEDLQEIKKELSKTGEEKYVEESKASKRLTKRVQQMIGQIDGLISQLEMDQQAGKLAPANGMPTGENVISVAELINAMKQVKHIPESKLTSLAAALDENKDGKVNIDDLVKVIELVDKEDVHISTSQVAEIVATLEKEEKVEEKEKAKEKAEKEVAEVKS

Target: PINK1-FLAG (UniProt Q9BXM7)
Test: affinity purification with mass spectrometry; PINK1-FLAG expressed in HEK293 cells and immunoprecipitated; interacting proteins determined by mass spectrometry-based interactomics

binding: binds
Substance: leucine zipper-EF-hand containing transmembrane protein 1 (LETM1), found with PINK1-FLAG from HEK293 cells (from UniProt O95202-1 116-739)

These are yes or no findings as the source states them, for the method shown. Binding seen in cells or lysates may run through a third protein. A yes stands for co-enrichment or nearness to the bait. Other partners may have been found.
